Reference: article PMC5087658, “Essential role of the Dishevelled DEP domain in a Wnt-dependent human-cell-based complementation assay” (Journal of Cell Science, 2016)
Results are given in words; binding and its absence hold for the method and conditions named. Binding calls can cover weak binding; strength is not graded here.

Amino acid sequences for entries named in this document (tags omitted). A change or cut given only in a name is not applied to a line headed by its entry. Residues count along the entry.
UniProt Q13467, residues 27-585: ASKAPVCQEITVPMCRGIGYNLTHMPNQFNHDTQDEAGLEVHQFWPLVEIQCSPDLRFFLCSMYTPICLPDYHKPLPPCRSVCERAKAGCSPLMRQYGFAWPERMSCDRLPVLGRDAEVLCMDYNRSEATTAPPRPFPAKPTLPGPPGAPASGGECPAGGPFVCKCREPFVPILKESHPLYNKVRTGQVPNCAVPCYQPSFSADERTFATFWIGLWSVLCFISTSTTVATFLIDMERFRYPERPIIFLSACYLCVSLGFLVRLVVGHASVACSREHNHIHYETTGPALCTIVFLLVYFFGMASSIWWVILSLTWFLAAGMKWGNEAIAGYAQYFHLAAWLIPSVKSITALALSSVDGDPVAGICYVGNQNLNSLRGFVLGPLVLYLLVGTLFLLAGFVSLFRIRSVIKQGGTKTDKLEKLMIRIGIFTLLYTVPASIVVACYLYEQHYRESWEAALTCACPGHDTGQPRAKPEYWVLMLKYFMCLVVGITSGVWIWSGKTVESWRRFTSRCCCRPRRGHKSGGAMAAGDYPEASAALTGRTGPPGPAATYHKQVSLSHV
UniProt O14641: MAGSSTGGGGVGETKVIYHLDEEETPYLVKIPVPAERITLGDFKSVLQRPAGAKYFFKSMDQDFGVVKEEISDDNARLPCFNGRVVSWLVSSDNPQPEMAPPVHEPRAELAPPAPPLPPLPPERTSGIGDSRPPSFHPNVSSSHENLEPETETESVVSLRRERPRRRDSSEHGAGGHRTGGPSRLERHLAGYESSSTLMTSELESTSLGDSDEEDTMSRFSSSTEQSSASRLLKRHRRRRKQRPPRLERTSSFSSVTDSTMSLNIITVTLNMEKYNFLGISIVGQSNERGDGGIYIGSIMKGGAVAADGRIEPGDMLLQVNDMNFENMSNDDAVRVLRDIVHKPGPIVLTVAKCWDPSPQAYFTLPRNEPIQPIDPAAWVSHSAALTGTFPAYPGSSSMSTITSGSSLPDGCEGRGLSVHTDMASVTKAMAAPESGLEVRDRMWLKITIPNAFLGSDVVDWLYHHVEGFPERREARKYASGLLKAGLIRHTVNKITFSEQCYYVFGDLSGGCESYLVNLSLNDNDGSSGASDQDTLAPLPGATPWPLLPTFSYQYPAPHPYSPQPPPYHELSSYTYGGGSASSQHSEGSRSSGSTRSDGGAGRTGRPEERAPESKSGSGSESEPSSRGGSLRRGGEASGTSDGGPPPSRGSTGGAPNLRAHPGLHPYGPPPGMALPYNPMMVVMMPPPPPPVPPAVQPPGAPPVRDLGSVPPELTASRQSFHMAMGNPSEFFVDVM

Molecular target: SNAP–FZD5 (UniProt Q13467)
Experiment: recruitment assay (GFP fusion recruited to membrane-associated SNAP–FZD5 in co-transfected cells, confocal microscopy); co-overexpression of DVL2–GFP or DEP–GFP with SNAP–FZD5 in HEK293T cells; 100 cells scored for DEP–GFP

DEP–GFP, wt (minimal DEP domain of DVL2) (from UniProt O14641) (domain or fragment)
binding: binds
